According to article PMC7819943, “Rice protein-binding microarrays: a tool to detect cis-acting elements near promoter regions in rice”:
This is one part of the list.

Molecular target: T1, OsSMF1 (Oryza sativa, UniProt Q6ZLB0 1-436)
T1 sequence: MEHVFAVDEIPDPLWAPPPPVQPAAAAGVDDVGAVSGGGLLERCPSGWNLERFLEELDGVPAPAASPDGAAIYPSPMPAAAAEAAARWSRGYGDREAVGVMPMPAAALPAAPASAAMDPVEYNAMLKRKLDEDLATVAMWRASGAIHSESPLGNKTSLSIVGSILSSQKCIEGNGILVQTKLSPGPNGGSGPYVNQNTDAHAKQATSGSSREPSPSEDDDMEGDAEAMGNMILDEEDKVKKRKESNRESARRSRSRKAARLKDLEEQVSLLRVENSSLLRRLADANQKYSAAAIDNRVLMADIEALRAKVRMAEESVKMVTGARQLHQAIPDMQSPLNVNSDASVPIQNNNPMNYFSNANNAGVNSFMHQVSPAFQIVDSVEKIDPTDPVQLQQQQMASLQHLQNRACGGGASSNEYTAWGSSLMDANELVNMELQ
Experiment: protein-binding microarray (RPBM); PBS, 2% BSA, 51.3 ng/ul salmon testes DNA, 50 uM zinc acetate, 200 nM TF, 25 C, 1 h; high values mean tight binding
Conditions: protein: recombinant; tags: N-terminal polyhistidine and DsRed monomer fusion (pET32a); chain copies: 2; label: CyDye5-dUTP incorporated in the synthesized complementary strand; 3' TTTTT single-stranded linker to array surface; dsDNA, one strand shown
Procedure, shortened: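 Transcription factors were each fused at the N-terminus to a polyhistidine tag plus DsRed and expressed in E. coli BL21-CodonPlus before Ni–NTA purification. Binding to a double-stranded custom Agilent array was carried out with 200 nM protein at 25 °C for 1 h in PBS, 2% BSA, salmon testes DNA and 50 µM zinc acetate. The binding signal is per-feature fluorescence intensity, in arbitrary units, on an Axon 4000B scanner.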

**Q.** For “GCCGGCGGGGAGGGAGGTCCGGAGGAAGTGAAATGGCGGCCGGAGTCACCTAGTGCAG”, which binding signal is on record?
**A.** 3170 fluorescence intensity (a.u.)

**Q.** With “GAGTGTACCGTCTTAGCGGGACTCCTACTAAGGAAGCCTACGGAGTCACCTAGTGCAG” as the sequence, how does the binding signal read?
**A.** 30500 fluorescence intensity (a.u.)

**Q.** For “TAATTCTGCATGTGCACTCTGCTGACACAGTTCTACTTATCGGAGTCACCTAGTGCAG”, which binding signal is on record?
**A.** 3420 fluorescence intensity (a.u.)

**Q.** With “AACATCATATATTGATGATTATTTGCTGCATAAGGAGATGCGGAGTCACCTAGTGCAG” as the sequence, how does the binding signal read?
**A.** 4070 fluorescence intensity (a.u.)

**Q.** With “CGCCACCGGGCTTACAACACCACCACGGAGCAAAGACTGTCGGAGTCACCTAGTGCAG” as the sequence, how does the binding signal read?
**A.** 3640 fluorescence intensity (a.u.)

**Q.** Which binding signal does the source give for “CTCCGCCCTCCGCCGCCTCCGTTGCCAACCGCCACCGTCCCGGAGTCACCTAGTGCAG” here?
**A.** 4990 fluorescence intensity (a.u.)

**Q.** “CACGCAGTCACTCACGCTCGCCGCCAGCACACACCTCCGTCGGAGTCACCTAGTGCAG” was tested. Which binding signal did it give?
**A.** 4200 fluorescence intensity (a.u.)

**Q.** Which binding signal does the source give for “CCGTCGTCGCTCCGAAGAAGGATGAAGGCGTCACGGGCGACGGAGTCACCTAGTGCAG” here?
**A.** 3230 fluorescence intensity (a.u.)

**Q.** For “CCCACAGAGGAGGGGCGCGCCAGCCATGCTGGCGCCGTGGCGGAGTCACCTAGTGCAG”, which binding signal is on record?
**A.** 3140 fluorescence intensity (a.u.)

**Q.** With “TGCCCTGGACGCGCTTGGCCGTCGATGTCATCATGGACGCCGGAGTCACCTAGTGCAG” as the sequence, how does the binding signal read?
**A.** 5570 fluorescence intensity (a.u.)

**Q.** How did the binding signal turn out when “CGAGTATTTATTTAGGTGTTTAGTTCAAAGCAGAGTTGCTCGGAGTCACCTAGTGCAG” was run?
**A.** 22000 fluorescence intensity (a.u.)

**Q.** “TTTCATGCCTCCTCCATGTTGGCAATTTGACATGTCCTTCCGGAGTCACCTAGTGCAG” was tested. Which binding signal did it give?
**A.** 3340 fluorescence intensity (a.u.)

**Q.** Which binding signal does the source give for “ATCTCTTCTTCCGCTTGGACTCATCGCCGTGACGTCGACGCGGAGTCACCTAGTGCAG” here?
**A.** 5470 fluorescence intensity (a.u.)

**Q.** How did the binding signal turn out when “TCTACTCCTAAATCCACATCATCTTTAGCAAAAGCAACAACGGAGTCACCTAGTGCAG” was run?
**A.** 4670 fluorescence intensity (a.u.)

**Q.** How did the binding signal turn out when “CATCACTTATTTTGTTGTGACCTATTTTATCATTAAAATACGGAGTCACCTAGTGCAG” was run?
**A.** 3200 fluorescence intensity (a.u.)

**Q.** How did the binding signal turn out when “TTAGCTTCACAGTTCACTGTAGCGTCTAGAAGAGGAACAGCGGAGTCACCTAGTGCAG” was run?
**A.** 63300 fluorescence intensity (a.u.)

**Q.** For “CAGAACGTGATGGAGGAGGACCGCACGCTGCGGTGGCACGCGGAGTCACCTAGTGCAG”, which binding signal is on record?
**A.** 18100 fluorescence intensity (a.u.)

**Q.** “ATAGCCCAACTCGAATCAATCCACGTCTCCACCGTTCATCCGGAGTCACCTAGTGCAG” was tested. Which binding signal did it give?
**A.** 3360 fluorescence intensity (a.u.)

**Q.** For “TTAGCGCTAGAGCTAGGCCGGCCACTACACATCATATCGACGGAGTCACCTAGTGCAG”, which binding signal is on record?
**A.** 3700 fluorescence intensity (a.u.)

**Q.** Which binding signal does the source give for “GTCGTCCGAATCCAAAACCGTCGCGGCCACGTCACCGAGTCGGAGTCACCTAGTGCAG” here?
**A.** 25600 fluorescence intensity (a.u.)

**Q.** “TGGAGTACGTCATCGACATCGATCCCGCAACGTGTGCCTCCGGAGTCACCTAGTGCAG” was tested. Which binding signal did it give?
**A.** 9360 fluorescence intensity (a.u.)

**Q.** “TGTGATGTTAGATTATGCTTTACTTTGAACTTTGAAGTACCGGAGTCACCTAGTGCAG” was tested. Which binding signal did it give?
**A.** 26800 fluorescence intensity (a.u.)

**Q.** For “CTAGAGCACATCACGATCACACTTCACCCATTGAGCCGCCCGGAGTCACCTAGTGCAG”, which binding signal is on record?
**A.** 16000 fluorescence intensity (a.u.)

**Q.** “ATAATTAGTCGTAACTACGAGCACCTGTATCAAGTCATGCCGGAGTCACCTAGTGCAG” was tested. Which binding signal did it give?
**A.** 3820 fluorescence intensity (a.u.)

**Q.** Which binding signal does the source give for “TTTGAGTATTTAGCAGCAAAAGCGGCTGTTGGCTGTGTGCCGGAGTCACCTAGTGCAG” here?
**A.** 31900 fluorescence intensity (a.u.)

**Q.** For “GCACCACTGCTCCACCGCCAACTAAACTTCCGCCGGCGTGCGGAGTCACCTAGTGCAG”, which binding signal is on record?
**A.** 3390 fluorescence intensity (a.u.)

**Q.** Which binding signal does the source give for “CTCCCTGCAAACCGCGCCACGCGGCCGCTCCGGAGCCTCACGGAGTCACCTAGTGCAG” here?
**A.** 5560 fluorescence intensity (a.u.)

**Q.** For “ATAAACCTAGCACACATGATGTGAGCGTCATCTATCTAAACGGAGTCACCTAGTGCAG”, which binding signal is on record?
**A.** 3960 fluorescence intensity (a.u.)

**Q.** Which binding signal does the source give for “ATTTCCAGTAAAAGTGGCATTGTTCAGACTTCAGTCATTACGGAGTCACCTAGTGCAG” here?
**A.** 3530 fluorescence intensity (a.u.)

**Q.** Which binding signal does the source give for “TACAACAAACCTAACATCAGCTACTTGTCATCGATCATCACGGAGTCACCTAGTGCAG” here?
**A.** 3270 fluorescence intensity (a.u.)

**Q.** “TCAAATCAGAAATGAGGATCCTACATCACAAGTTGGCAAGCGGAGTCACCTAGTGCAG” was tested. Which binding signal did it give?
**A.** 6340 fluorescence intensity (a.u.)

**Q.** “TAGAAGAACAACCATTGTATAGGAAGTAGGAACCAGTGCACGGAGTCACCTAGTGCAG” was tested. Which binding signal did it give?
**A.** 25600 fluorescence intensity (a.u.)

**Q.** Which binding signal does the source give for “GCCGCCGCCGCGGCATACCACGCGCAGGTGAGCCCGTTCCCGGAGTCACCTAGTGCAG” here?
**A.** 4380 fluorescence intensity (a.u.)

**Q.** How did the binding signal turn out when “ATACCGACTTGGTTCTAAGAGTTGTCATAACATCTCGATCCGGAGTCACCTAGTGCAG” was run?
**A.** 3180 fluorescence intensity (a.u.)

**Q.** “CATTTTAATGTTGGATCAATTGCGTGTCACAGATTGAGTGCGGAGTCACCTAGTGCAG” was tested. Which binding signal did it give?
**A.** 6770 fluorescence intensity (a.u.)

**Q.** With “CATCGCACGAAATTAATATGATGCCACGTCCTCATACTAGCGGAGTCACCTAGTGCAG” as the sequence, how does the binding signal read?
**A.** 17500 fluorescence intensity (a.u.)

**Q.** How did the binding signal turn out when “AAAAGGTTACGACTAACTTTTGCGTGTGTGTAATCTTTGCCGGAGTCACCTAGTGCAG” was run?
**A.** 4210 fluorescence intensity (a.u.)

**Q.** How did the binding signal turn out when “CAGGTGGTGGTGGCCATTAGTTAGTGGCAAATGTGGAAGGCGGAGTCACCTAGTGCAG” was run?
**A.** 3220 fluorescence intensity (a.u.)

**Q.** Which binding signal does the source give for “AGGGGACAAAACACCATGGCCTCGCCGGCGTATTGAGTGGCGGAGTCACCTAGTGCAG” here?
**A.** 3560 fluorescence intensity (a.u.)

**Q.** Which binding signal does the source give for “CGAACCACGCAAATAATACTACACACGCGCGTCACGGACACGGAGTCACCTAGTGCAG” here?
**A.** 4640 fluorescence intensity (a.u.)

**Q.** Which binding signal does the source give for “ACCAAGCCACGGACTCCTCTAATTCTCTCTCTTGCTTTCTCGGAGTCACCTAGTGCAG” here?
**A.** 36100 fluorescence intensity (a.u.)

**Q.** With “ATTTATAGCTGTACGCCCGCATACTTCTGCAGTCAGCAAACGGAGTCACCTAGTGCAG” as the sequence, how does the binding signal read?
**A.** 3540 fluorescence intensity (a.u.)
